From patent publication US11420997 (dated 2022)

Test: general procedure: solution-phase peptide synthesis; soluble carrier (Tag) for liquid phase peptide synthesis (Kb, Ka, Kb-NHEt, KS1, F1, KJ1, KJ3); COMU/DIPEA; DMT-MM/DIPEA for Pro-NHEt coupling
[1] = late stage modification step, 4TFA, run 1
[2] = late stage modification step, 4TFA, run 2
[3] = whole synthesis, TFA salt (compounds 11, 49)
[4] = coupling step, TFA salt (compounds 11, 49)
[5] = late stage modification step, TFA salt (compounds 11, 49), run 1
[6] = late stage modification step, TFA salt (compounds 11, 49), run 2
[7] = late stage modification step, TFA

Substance | crude yield [3] [%] | step yield [4] [%] | also measured
4TFA.H-dArg-Arg-Pro-Hyp-Gly-Thi-Ser-dTic-Oic-Arg-OH |  |  | step yield [1]: 90.4%; step yield [2]: 73.2%; crude HPLC purity [1]: 84.93%; crude HPLC purity [2]: 85.9%
Boc-Ser(tBu)-Pro-Leu-Gln(Trt)-OKb | 88.4 |  | 
Boc-dArg(Pbf)-Arg(Pbf)-Pro-Hyp-Gly-Thi-Ser(tBu)-dTic-Oic-Arg(Pbf)-OKb | 81.4 |  | 
HCl.H-Arg(Pbf)-Pro-Hyp-Gly-Thi-Ser(tBu)-D-Tic-Oic-Arg(Pbf)-OKa |  | 96.3 | 
HCl.H-D-Arg(Pbf)-Arg(Pbf)-Pro-Hyp-Gly-Thi-Ser(tBu)-D-Tic-Oic-Arg(Pbf)-OKa |  | 96.0 | 
HCl.H-Gly-Thi-Ser(tBu)-D-Tic-Oic-Arg(Pbf)-OKa |  | 96.9 | 
HCl.H-Hyp-Gly-Thi-Ser(tBu)-D-Tic-Oic-Arg(Pbf)-OKa |  | 97.2 | 
HCl.H-Pro-Hyp-Gly-Thi-Ser(tBu)-D-Tic-Oic-Arg(Pbf)-OKa |  | 96.6 | 
HCl.H-Ser(tBu)-D-Tic-Oic-Arg(Pbf)-OKa |  | 97.5 | 
HCl.H-Thi-Ser(tBu)-D-Tic-Oic-Arg(Pbf)-OKa |  | 98.1 | 
Pyr-His(Trt)-Trp(Boc)-Ser(tBu)-Tyr(tBu)-dLeu-Leu-Arg(Pbf)-OKb | 87.50 |  | 
Pyr-His(Trt)-Trp(Boc)-Ser(tBu)-Tyr(tBu)-dLeu-Leu-Arg(Pbf)-Pro-EtNKb | 90.83 |  | 
Pyr-His(Trt)-Trp(Boc)-Ser(tBu)-Tyr(tBu)-dLeu-Leu-Arg(Pbf)-Pro-NEt-KJ3 | 64.6 |  | crude HPLC purity [3]: 86.10%
Pyr-His(Trt)-Trp(Boc)-Ser(tBu)-Tyr(tBu)-dLeu-Leu-Arg(Pbf)—O—F1 | 64.6 |  | 
Pyr-His(Trt)-Trp(Boc)-Ser(tBu)-Tyr(tBu)-dLeu-Leu-Arg(Pbf)—O—KJ1 | 87.50 |  | 
Pyr-His(Trt)-Trp(Boc)-Ser(tBu)-Tyr(tBu)-dLeu-Leu-Arg(Pbf)—O—KS1 | 33.7 |  | 
Pyr-His-Trp-Ser-Tyr-dLeu-Leu-Arg-Pro-NHEt |  |  | crude HPLC purity [5]: 76.28%; crude HPLC purity [6]: 95.18%; crude HPLC purity (late stage modification step, TFA salt (compounds 11, 49), run 3): 94.93%; step yield [5]: 93.0%; step yield [6]: 47.5%
TFA.H-Ser-Pro-Leu-Gln-OH |  |  | crude HPLC purity [7]: 84.93%; step yield [7]: 78.3%
[pGlu]HWSY[dL]LR-OH |  |  | crude HPLC purity (late stage modification step, TFA salt (compounds 11, 49)): 76.28%
[pGlu][His(Trt)]W(Boc)S(tBu)Y(tBu)[dL]LR(Pbf)P-NHEt |  | 80.51 | 

[ ]: non-standard residue; d: D form. The star is where a group is joined. His(Trt) = N[C@@H](Cc1cn(C(c2ccccc2)(c2ccccc2)c2ccccc2)cn1)C(=O)O; Pbf = Cc1c(C)c(S(=O)(=O)*)c(C)c2c1OC(C)(C)C2; pGlu = O=C1CC[C@@H](C(=O)O)N1; Boc = CC(C)(C)OC(=O)*; tBu = CC(C)(C)*
